PMC3510444, “LC3C, Bound Selectively by a Noncanonical LIR Motif in NDP52, Is Required for Antibacterial Autophagy” (Molecular Cell, 2012)
These are yes or no findings as the source states them, for the method shown. For some of these results: Binding seen in cells or lysates may run through a third protein. Some results given as binding are weak or reduced against the parent protein; the word gives no strength.

How the values were obtained:
[1] = molecular target: FITC-labeled NDP52 CLIR peptide (aa 128-141), V136S (human) (UniProt Q13137); experiment: fluorescence polarisation; fluorescence anisotropy, equilibrium; purified ATG8 orthologs serially diluted and mixed with equal volumes of 100 nM FITC-labeled NDP52 peptides; PheraStar plate reader; both purified
GST-GABARAP (human) = GST-GABARAP (human) (UniProt O95166); experiment: pull-down; LUMIER binding assay: lysates of 293ET cells expressing luciferase fusions incubated with purified GST-tagged proteins bound to beads; ratio of luciferase activity bound to beads and in lysates; only the target purified
GST-GABARAPL2 (human) = GST-GABARAPL2 (human) (UniProt P60520); experiment: as above
GST-LC3A (human) = GST-LC3A (human) (UniProt Q9H492); experiment: as above
GST-LC3C (human) = GST-LC3C (human) (UniProt Q9BXW4); experiment: as above
[2] = molecular target: GST-LC3C K32Q/F33H (human) (UniProt Q9BXW4); experiment: as above
[3] = molecular target: GST-LC3C K32Q/F33H/L64V/F69L (human) (UniProt Q9BXW4); experiment: as above
[4] = molecular target: GST-LC3C L64V/F69L (human) (UniProt Q9BXW4); experiment: as above

Substance | binding [1] | binding (GST-GABARAP (human)) | binding (GST-GABARAPL2 (human)) | binding (GST-LC3A (human)) | binding (GST-LC3C (human)) | binding [2] | binding [3] | binding [4]
LC3A, purified, for fluorescence anisotropy (from UniProt Q9H492 1-121) | no binding | – | – | – | – | – | – | –
NDP52 I133W, full length, fused to luciferase (from UniProt Q13137 1-446) | – | binds | binds | binds | – | – | – | –
p62 (SQSTM1) fused to luciferase (from UniProt Q13501 1-440) | – | – | binds | binds | binds | binds | binds | binds
